Assay results: PMC9508834, “Mechanism of protein-primed template-independent DNA synthesis by Abi polymerases” (Nucleic Acids Research, 2022)
No constants are given. Whether binding was seen depends on the method and setting.

Target: Ll-AbiK T151W/T369W (Lactococcus lactis) (UniProt Q48614)
Assay: SEC-MALS; Superdex 200 Increase 10/300 GL, 100 μl samples, 20 mM HEPES pH 7.0, 400 mM NaCl, 0.5 mM EDTA, 1 mM DTT; both purified

B1: Ll-AbiK T151W/T369W (enzyme, UniProt Q48614 1-599)
chain: MKKEFTELYDFIFDPIFLVRYGYYDRSIKNKKMNTAKVELDNEYGKSDSFYFKVFNMESFADYLRSHDLKTHFNGKKPLSTDPVYFNIPKNIEARRQYKMPNLYSYMALNYYICDNKKEFIEVFIDNKFSTSKFFNQLNFDYPKTQEITQWLLYGGIKKLHLDLSNFYHTLYTHSIPWMIDGKSASKQNRKKGFSNTLDTLITACQYDETHGIPTGNLLSRIITELYMCHFDKQMEYKKFVYSRYVDDFIFPFTFENEKQEFLNEFNLICRENNLIINDNKTKVDNFPFVDKSSKSDIFSFFENITSTNSNDKWIKEISNFIDYCVNEEHLGNKGAIKCIFPVITNTLKQKKVDTKNIDNIFSKRNMVWNFNVFEKILDLSLKDSRLTNKFLTFFENINEFGFSSLSASNIVKKYFSNNSKGLKEKIDHYRKNNFNQELYQILLYMVVFEIDDLLNQEELLNLIDLNIDDYSLILGTILYLKNSSYKLEKLLKKIDQLFINTHANYDVKTSRMAEKLWLFRYFFYFLNCKNIFSQKEINSYCQSQNYNSGQNGYQTELNWNYIKGQGKDLRANNFFNELIVKEVWLISCGENEDFKYLN
Q: B1 was tested. Which binding did it give?
A: Its binding is “no binding”.
